Laboratory results from article PMC6011996.
No constants are given. Whether binding was seen depends on the method and setting. Binding seen in cells or lysates may run through a third protein. Binding calls can cover weak binding; strength is not graded here.

The chains behind the UniProt entries cited, without tags or fusion partners. Where a name states a change or a piece, a line headed by the entry shows the natural chain unless it says otherwise.
UniProt B7UM95: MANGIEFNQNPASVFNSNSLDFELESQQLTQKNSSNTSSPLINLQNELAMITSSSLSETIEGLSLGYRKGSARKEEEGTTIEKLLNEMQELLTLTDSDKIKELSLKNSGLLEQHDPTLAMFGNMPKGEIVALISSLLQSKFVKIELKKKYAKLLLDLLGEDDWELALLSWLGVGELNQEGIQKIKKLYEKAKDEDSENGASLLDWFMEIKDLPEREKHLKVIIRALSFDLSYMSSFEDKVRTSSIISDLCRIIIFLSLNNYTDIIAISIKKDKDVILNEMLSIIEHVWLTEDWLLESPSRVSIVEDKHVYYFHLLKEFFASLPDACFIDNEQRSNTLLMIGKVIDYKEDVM
UniProt B7UMB2: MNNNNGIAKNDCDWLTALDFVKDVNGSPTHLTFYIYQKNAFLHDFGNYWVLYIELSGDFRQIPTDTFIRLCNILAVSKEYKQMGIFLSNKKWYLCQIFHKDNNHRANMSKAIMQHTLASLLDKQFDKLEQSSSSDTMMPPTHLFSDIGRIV

Molecular target: SepL-3FLAG (enteropathogenic Escherichia coli (EPEC) E2348/69) (UniProt B7UM95)
Experiment: co-IP

How did the binding turn out when SepD (from UniProt B7UMB2) was run?
The binding was “binds”.
